Reference: article PMC11813584, “An odorant-binding protein functions in fire ant social immunity interfacing with innate immunity” (Open Biology, 2025)

Test system: S. invicta workers
Assay: GC-MS analysis of cuticular chemicals of B. bassiana-killed versus freeze-killed workers
Parameters: species or system Solenopsis invicta
Settings: for change on ant cuticle after infection: B. bassiana-killed versus freeze-killed workers; for concentration in B. bassiana-killed ants compared to freeze-killed ants (in words): fatty acids quantified by GC-MS

Row | SMILES | change on ant cuticle after infection | concentration in B. bassiana-killed ants compared to freeze-killed ants (in words)
1 | CC1CCOC1=O (stereo not shown) [3-methyltetrahydro-2-furanone] | increases | 
2 | CCCCCCCCCCC/C=C/CCCCC(=O)O [trans-6-octadecenoic acid] |  | significantly higher in the B. bassiana-killed ants
3 | CCCCCCCCCCCCCCCCCCCCCC(=O)O [behenic acid] | increases | significantly higher in the B. bassiana-killed ants
